Results are given in words; binding and its absence hold for the method and conditions named. In cells and extracts the contact can be indirect.
Key:
Assay in all cases: co-IP; 500 ug nuclear extract of 0-24 h Drosophila embryos incubated overnight at 4 C with antiserum (anti-Su(Hw), anti-CP190, anti-Mod(mdg4)67.2 or anti-M1BP; normal serum as control) cross-linked to Protein A or G Sepharose; washed twice with HBSMT and once with HBSM; western blotting; efficiency as percent of total input protein
[1] = target: T1, Centrosomal protein 190 (CP190) (Drosophila (endogenous in 0-24 h Oregon R embryos)) (UniProt Q24478)
T1 sequence: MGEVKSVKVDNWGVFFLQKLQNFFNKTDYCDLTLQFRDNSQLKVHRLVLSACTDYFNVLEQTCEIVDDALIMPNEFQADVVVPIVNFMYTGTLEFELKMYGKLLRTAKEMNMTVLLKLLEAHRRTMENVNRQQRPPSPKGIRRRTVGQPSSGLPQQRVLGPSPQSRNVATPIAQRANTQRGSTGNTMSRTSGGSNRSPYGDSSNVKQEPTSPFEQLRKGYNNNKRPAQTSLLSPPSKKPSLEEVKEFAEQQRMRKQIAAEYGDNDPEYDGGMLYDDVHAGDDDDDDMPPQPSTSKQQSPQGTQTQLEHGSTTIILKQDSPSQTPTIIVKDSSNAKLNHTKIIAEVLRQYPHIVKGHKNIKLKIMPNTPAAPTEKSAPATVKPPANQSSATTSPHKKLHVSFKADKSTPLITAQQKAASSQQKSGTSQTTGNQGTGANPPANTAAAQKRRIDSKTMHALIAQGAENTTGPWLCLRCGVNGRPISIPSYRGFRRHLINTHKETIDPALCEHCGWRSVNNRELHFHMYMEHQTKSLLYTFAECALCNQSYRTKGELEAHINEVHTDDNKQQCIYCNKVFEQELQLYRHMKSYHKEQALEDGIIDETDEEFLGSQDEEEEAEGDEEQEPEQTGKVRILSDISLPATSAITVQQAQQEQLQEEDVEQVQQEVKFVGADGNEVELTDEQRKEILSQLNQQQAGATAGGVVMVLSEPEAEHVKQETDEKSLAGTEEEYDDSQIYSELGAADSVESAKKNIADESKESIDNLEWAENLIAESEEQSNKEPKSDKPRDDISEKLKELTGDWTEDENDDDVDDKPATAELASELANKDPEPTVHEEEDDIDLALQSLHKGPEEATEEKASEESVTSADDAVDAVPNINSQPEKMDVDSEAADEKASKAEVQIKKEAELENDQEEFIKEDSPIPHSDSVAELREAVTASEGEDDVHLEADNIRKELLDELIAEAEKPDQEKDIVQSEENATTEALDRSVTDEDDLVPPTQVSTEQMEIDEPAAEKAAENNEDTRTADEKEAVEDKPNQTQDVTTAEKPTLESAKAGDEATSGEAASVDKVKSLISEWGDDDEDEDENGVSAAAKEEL

[2] = target: T2, Modifier of mdg4 [Mod(mdg4)] 67.2 kDa isoform [Mod(mdg4)67.2] (Drosophila (endogenous in 0-24 h Oregon R embryos)) (UniProt Q86B87)
T2 sequence: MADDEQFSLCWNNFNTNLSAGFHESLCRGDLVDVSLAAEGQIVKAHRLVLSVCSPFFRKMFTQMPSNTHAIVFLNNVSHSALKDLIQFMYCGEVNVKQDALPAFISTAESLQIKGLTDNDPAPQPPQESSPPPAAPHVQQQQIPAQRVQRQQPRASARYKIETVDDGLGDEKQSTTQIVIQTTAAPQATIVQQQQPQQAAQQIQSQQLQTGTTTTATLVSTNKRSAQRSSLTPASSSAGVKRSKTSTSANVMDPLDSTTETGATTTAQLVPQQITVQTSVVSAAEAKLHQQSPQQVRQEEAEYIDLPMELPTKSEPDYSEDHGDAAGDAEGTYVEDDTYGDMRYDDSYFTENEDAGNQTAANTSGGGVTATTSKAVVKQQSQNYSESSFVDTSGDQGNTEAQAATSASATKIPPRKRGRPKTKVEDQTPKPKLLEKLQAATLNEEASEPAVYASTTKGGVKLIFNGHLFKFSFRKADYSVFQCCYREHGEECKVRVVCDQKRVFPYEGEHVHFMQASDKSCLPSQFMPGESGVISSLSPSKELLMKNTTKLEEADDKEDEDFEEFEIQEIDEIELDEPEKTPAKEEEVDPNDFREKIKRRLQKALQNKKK

[3] = target: T3, Motif 1 Binding Protein (M1BP) (Drosophila (endogenous in 0-24 h Oregon R embryos)) (UniProt Q9VHM3)
T3 sequence: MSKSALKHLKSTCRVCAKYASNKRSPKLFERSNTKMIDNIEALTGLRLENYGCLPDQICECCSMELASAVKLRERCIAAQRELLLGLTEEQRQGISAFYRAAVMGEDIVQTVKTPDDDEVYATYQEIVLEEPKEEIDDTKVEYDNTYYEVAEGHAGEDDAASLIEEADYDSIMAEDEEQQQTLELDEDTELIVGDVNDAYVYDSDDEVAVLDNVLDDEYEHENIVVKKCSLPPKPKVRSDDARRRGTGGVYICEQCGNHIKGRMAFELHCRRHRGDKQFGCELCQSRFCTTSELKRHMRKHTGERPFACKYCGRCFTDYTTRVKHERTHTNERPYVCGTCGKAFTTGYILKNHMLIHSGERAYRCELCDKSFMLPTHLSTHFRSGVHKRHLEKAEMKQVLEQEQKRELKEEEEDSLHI

[4] = target: T4, Suppressor of Hairy wing [Su(Hw)] (Drosophila (endogenous in 0-24 h Oregon R embryos)) (UniProt P08970)
T4 sequence: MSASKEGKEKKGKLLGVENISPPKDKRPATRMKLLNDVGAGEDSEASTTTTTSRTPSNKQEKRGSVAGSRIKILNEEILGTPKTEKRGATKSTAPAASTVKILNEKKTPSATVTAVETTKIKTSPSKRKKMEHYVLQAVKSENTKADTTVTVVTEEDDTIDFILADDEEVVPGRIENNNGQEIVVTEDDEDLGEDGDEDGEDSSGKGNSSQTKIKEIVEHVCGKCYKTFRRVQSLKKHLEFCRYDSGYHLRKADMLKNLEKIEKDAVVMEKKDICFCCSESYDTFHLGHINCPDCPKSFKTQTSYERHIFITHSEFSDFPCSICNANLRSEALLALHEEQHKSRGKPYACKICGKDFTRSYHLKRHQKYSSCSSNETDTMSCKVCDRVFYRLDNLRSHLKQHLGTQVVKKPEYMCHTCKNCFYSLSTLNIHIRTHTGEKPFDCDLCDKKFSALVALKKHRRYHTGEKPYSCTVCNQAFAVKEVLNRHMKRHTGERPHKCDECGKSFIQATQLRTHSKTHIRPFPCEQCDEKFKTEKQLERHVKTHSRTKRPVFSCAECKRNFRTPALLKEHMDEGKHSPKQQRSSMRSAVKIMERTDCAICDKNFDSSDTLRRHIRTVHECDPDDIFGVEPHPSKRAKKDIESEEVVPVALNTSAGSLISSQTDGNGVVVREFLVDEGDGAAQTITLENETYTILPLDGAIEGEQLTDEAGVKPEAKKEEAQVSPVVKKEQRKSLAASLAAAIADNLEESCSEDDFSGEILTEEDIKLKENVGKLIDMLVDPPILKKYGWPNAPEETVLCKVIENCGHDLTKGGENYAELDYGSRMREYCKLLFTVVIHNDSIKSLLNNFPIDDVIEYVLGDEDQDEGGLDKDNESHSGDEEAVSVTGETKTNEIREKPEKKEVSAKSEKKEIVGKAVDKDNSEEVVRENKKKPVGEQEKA

binding [1]: no binding
binding [2]: no binding
binding [3]: no binding
binding [4]: no binding
B1: Polycomb (Pc) (protein, UniProt P26017 1-390)
chain: MTGRGKGSKGKLGRDNATDDPVDLVYAAEKIIQKRVKKGVVEYRVKWKGWNQRYNTWEPEVNILDRRLIDIYEQTNKSSGTPSKRGIKKKEKEPDPEPESEEDEYTFTENDVDTHQATTSSATHDKESKKEKKHHHHHHHHHHIKSERNSGRRSESPLTHHHHHHHHESKRQRIDHSSSSNSSFTHNSFVPEPDSNSSSSEDQPLIGTKRKAEVLKESGKIGVTIKTSPDGPTIKPQPTQQVTPSQQQPFQDQQQAEKIASEAATQLKSEQQATPLATEAINTTPAESGAEEEEVANEEGNQQAPQVPSENNNIPKPCNNLAINQKQPLTPLSPRALPPRFWLPAKCNISNRVVITDVTVNLETVTIRECKTERGFFRERDMKGDSSPVA

Source: article PMC8263732, “M1BP cooperates with CP190 to activate transcription at TAD borders and promote chromatin insulator activity” (Nature Communications, 2021)
